PubChem BioAssay AID652259 | Drosophila RNAi Screening Center, 2013

Screen: 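Knock-downs that push a Wingless-driven reporter up or down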 (primary screen)
Cell system: Drosophila clone 8 imaginal disc epithelial cells
Reagent: long dsRNA against Drosophila genes
Challenge: pathway stimulated by co-transfected Wingless expression plasmid
Measured: 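Firefly luciferase from a tcf-site Wingless reporter, measured alongside co-transfected Renilla luciferase that tracks transfection; pathway stimulated by a Wingless plasmid; the firefly-to-Renilla ratio is not deposited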
Reading the numbers: firefly reporter light: higher = more Wg reporter light, before normalisation; Renilla control light: higher = more transfected or surviving cells
Rule for the call: 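a knock-down is a candidate when at least two out of four statistical tests show it departing from its plate mean; one test alone signals a weak candidate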
Calls: active = candidate regulator (raises or lowers reporter); inactive = not a candidate
In all, the deposit lists about 22,000 reagents; shown is a random part of those with a known target gene and a result. Over the whole deposit, 233 (1.1%) are marked active. 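Light values are raw, unnormalised plate reads; the ratio scores behind the reporter calls were not deposited.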 The numbers tell different reagents against one gene apart. A plus sign joins genes that one reagent is predicted to hit. Not stated in the record: the amount of reagent, the time to read-out, the dose of the treatment.

gene	dsRNA no.	firefly reporter light, replicate 1	firefly reporter light, replicate 2	Renilla control light, replicate 1	Renilla control light, replicate 2	activity call
scf (supercoiling factor)	1	4698		2408		inactive
CtsL4 (Cathepsin L4)	1	2720	8400	924	3952	inactive
CG5013	1	18304		3809		inactive
pll (pelle)	1	3217	8758	1232	2458	inactive
CG17470	1	5840		2998		inactive
inc (insomniac)	1	22456		14407		inactive
inc (insomniac)	2	4104	9463	1956	3514	inactive
ATPsynD (ATP synthase, subunit D)	1	12385		3958		inactive
CG10376	1	6040		2119		inactive
CG32107	1	2337		1216		inactive
CG4676	1	6600		3429		inactive
Mal-A7 (Maltase A7)	1	2280	6096	794	2218	inactive
CG30271	1	3832	9857	585	3235	inactive
CG7730	1	7895		2695		inactive
CG10459	1	3781	11978	1581	5031	inactive
CG10459	2	6.02e5	6.50e5	2.67e5	2.96e5	inactive
CG14298	1	14148		2345		inactive
CG32720	1	2905		1264		inactive
CG11841	1	2227	2595	1303	560	inactive
CG2852	1	2290	6710	749	3160	inactive
CG2187	1	17532		12586		inactive
RecQ4 (RecQ4 helicase)	1	2326	5909	1632	2848	inactive
CG15629	1	2656	5949	1056	2209	inactive
CG4213	1	2727	8218	1010	2886	inactive
CG34166	1	4981	8.63e5	1830	3.98e5	inactive
CHMP2B (Charged multivesicular body protein 2b)	1	4677		1829		inactive
CG4610	1	3468	7447	694	2225	inactive
CG4610	2	8.58e5	9.07e5	4.67e5	3.47e5	inactive
Drl-2 (Derailed 2)	1	12762		11059		inactive
Drl-2 (Derailed 2)	2	5298		2160		inactive
Drl-2 (Derailed 2)	3	5975		2240		inactive

Entries above whose gene name starts with D or d:
gene	dsRNA no.	firefly reporter light, replicate 1	firefly reporter light, replicate 2	Renilla control light, replicate 1	Renilla control light, replicate 2	activity call
Drl-2 (Derailed 2)	1	12762		11059		inactive
Drl-2 (Derailed 2)	2	5298		2160		inactive
Drl-2 (Derailed 2)	3	5975		2240		inactive

The list goes on.
gene	dsRNA no.	firefly reporter light, replicate 1	firefly reporter light, replicate 2	Renilla control light, replicate 1	Renilla control light, replicate 2	activity call
PGRP-SB1 (Peptidoglycan recognition protein SB1)	1	5621		2544		inactive
CG32488	1	6493		1621		inactive
CG32488	2	9.31e5	8.80e5	4.52e5	4.47e5	inactive
Gr85a (Gustatory receptor 85a)	1	2592		1155		inactive
CG42570	1	2224		870		inactive
CG3611	1	2459	5588	342	2096	inactive
CG16863	1	2598	5689	1120	3056	inactive
CG43072	1	15052		3862		inactive
Pex7 (Peroxin 7)	1	1064	4694	972	2061	inactive
CG6000	1	15696		12849		inactive
Paris (Parkin Interacting Substrate)	1	13956		4736		inactive
Rsph1 (Radial spoke head protein 1)	1	2749	5760	1129	2938	inactive
CG33460	1	21069		14196		inactive
CG6553	1	8292		2519		inactive
CG13321	1	5588		1264		inactive
eIF3e (eukaryotic translation initiation factor 3 subunit e)	1	12128		1820		inactive
Tango11 (Transport and Golgi organization 11)	1	17507		10297		inactive
Tango11 (Transport and Golgi organization 11)	2	15136		8913		inactive
CG13071	1	5913		3238		inactive
Kdsr (3-ketodihydrosphingosine reductase)	1	4173		1625		inactive
fal (falten)	1	4541		1860		inactive
CG2006	1	3186	10761	1557	3958	inactive
Dd (Dullard)	1	3010	6442	1285	3813	inactive
CG3062	1	21170		9429		inactive
CG7408	1	7861		3427		inactive
PAN2 (Poly(A)-binding protein-dependent poly(A) ribonuclease 2)	1	9781		3948		inactive
LRP1 (LDL receptor protein 1)	1	2075	6330	667	2503	inactive
mRpL35 (mitochondrial ribosomal protein L35)	1	30294		5959		inactive
PIG-L (Phosphatidylinositol glycan anchor biosynthesis class L)	1	18152		4474		inactive
S-Lap8 (Sperm-Leucylaminopeptidase 8)	1	19962		7602		inactive
S-Lap8 (Sperm-Leucylaminopeptidase 8)	2	3.28e5	4.07e5	1.67e5	1.56e5	inactive
cato (cousin of atonal)	1	5686		2313		inactive
lambdaTry	1	7892		3610		inactive
robo3 (roundabout 3)	1	2284	6003	860	2678	inactive
robo3 (roundabout 3)	2	2797	6612	720	1920	inactive
robo3 (roundabout 3)	3	2694	10089	1099	3104	inactive
CG43218	1	3081		1737		inactive
CG31688 + CG31687	1	2784	9325	519	2027	inactive
TwdlW (TweedleW)	1	16540		3640		inactive
Pi3K68D (Phosphatidylinositol 3-kinase 68D)	1	5281		1781		inactive
wek (weckle)	1	6023		2240		inactive
CG8006	1	2651		1216		inactive
